The values below come from US20220298213A1, “IN VIVO ENGINEERED CEREBLON PROTEIN” (Vividion Therapeutics, Inc., priority 2018, published 2022).

Molecules are shown by their SMILES.

The nature of this data set: Global promiscuity, global (TMT) experiment. The settings on record: targets where 500 μM compound inhibits probe labeling by greater than 40% after 1 hour incubation.
Take `C=CC(=O)N1CC[C@@H](Oc2ccccc2)[C@H](F)C1`: the “Global Promiscuity” value is reported as 0.1528.
`C=CC(=O)N1CCC(Oc2cc(C#N)cc(-c3ccccc3OC)c2)CC1` [drawing 221]: the “Global Promiscuity” value amounted to 0.05484.
In the case of `C=CC(=O)N1CC[C@H](Oc2ccccc2)[C@H](F)C1` it was 0.09463; in that of `C=CC(=O)N1CCC(Oc2cc(C(N)=O)cc(-c3ccccc3OC)c2)CC1` [drawing 222], 0.02643.
With `C=CC(=O)N1CCC(S(=O)(=O)c2cccc(-c3ccccc3OC)c2)CC1`, the “Global Promiscuity” value came to 0.2775.
As to `C=CC(=O)N1CC(Oc2cccc(-c3ccccc3OC)c2)C1`, the “Global Promiscuity” value came out at 0.863.
In the case of `C=CC(=O)N1CC(Oc2ccc(Cl)cc2)C1` [drawing 224] it was 0.7851.
